According to US12539326B2, “Methods for treating Alzheimer's disease using semaglutide” (Novo Nordisk A/S, priority 2019, dated 2026):

Test: Body weight and blood glucose in SAMP8 mice
Assay type: in vivo, mouse
Settings: mean

Which results are given for “N-epsilon26-[2-(2-{2-[2-(2-{2-[(S)-4-Carboxy-4-(17-carboxyheptadecanoylamino)butyrylamino] ethoxy}ethoxy)acetylamino]ethoxy} ethoxy)acetyl][Aib8,Arg34]GLP-1-(7-37) [semaglutide]”?
body weight (16 weeks of age, SEM 0.7 grams, vehicle 31.0 grams, no difference): 29.2 grams; change in body weight from baseline (16 weeks of age, SEM 4.2%, vehicle 148.0%): 145.4%; blood glucose (SEM 2.2 mg/dL, vehicle 137.1 mg/dL, no difference): 133.1 mg/dL
